Results as given in PubChem BioAssay AID1487 (National Center for Advancing Translational Sciences (NCATS), 2009).
Some of the results follow. Shown are side measurements of this screen, not its main read-out; they come without a call. The list favours compounds with an active or inconclusive main result. The note in brackets gives the kind of curve behind each potency; many fits are weak.

Test: qHTS Assay for Modulators of Lamin A Splicing
Settings: HeLa LMNA splicing GFP/RFP minigene ratio, 48 h
Outline: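 Read-out is the ratio of GFP to DsRed2 object intensity, acquired by 488 nm laser-scanning cytometry on HeLa lamin A-EGFP minigene reporter cells. Compound incubation 48 hrs at 37 °C in Opti-MEM with 2% FBS; DMSO 0.5% final.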

[1] = measured here: GFP splicing reporter channel
[2] = measured here: RFP viability control channel

Structure (SMILES) | AC50 [1] | AC50 [2]
Cc1ccc(NC(=O)Cn2c(=O)oc3cc(S(=O)(=O)N4CCCCCC4)ccc32)cc1Cl | 10 µM [falling, partial curve, poor fit] | 17.8 µM [falling, partial curve, poor fit]
Cc1ccccc1-n1c(-c2ccco2)nc2ccccc2c1=O | 15.8 µM [rising, single point] | 
COc1ccccc1N1C(=O)NC(=O)C2(Cc3cc(C)ccc3N(C)C2)C1=O (stereo not drawn) |  | 0.631 µM [rising, partial curve]
CCOc1cccc(C2NCc3ccccc3-n3cccc32)c1O (stereo not drawn) |  | 15.8 µM [rising, single point]
COc1ccc2c(c1)c(C(=O)CN1CCN(C)CC1)c(C)n2Cc1ccccc1 | 12.6 µM [rising, partial curve, poor fit] | 
COc1ccc2c(c1)C13CCCC[C@@H]1C(C2)N(C)CC3 (stereo partly drawn) | 0.0708 µM [falling, full curve, poor fit] | 0.0708 µM [falling, full curve, poor fit]
COc1ccc(Cn2c(O)c(/C=N/NC(=O)c3ccccc3O)c(=O)[nH]c2=O)cc1 |  | 3.98 µM [rising, partial curve, poor fit]
CN1C(=O)C(=Cc2ccccc2Oc2ccc(Cl)cc2)C(=O)N(C)C1=O |  | 15.8 µM [rising, single point]
CC(C)CC(CN)CC(=O)O (stereo not drawn) |  | 0.000891 µM [rising, full curve, poor fit]
COc1ccc2c(c1OC)CN1CCc3cc4c(cc3[C@@H]1[C@@H]2O)OCO4 |  | 3.55 µM [rising, single point]
N[C@@]1(C(=O)O)CC[C@@H](C(=O)O)C1 | 4.47 µM [rising, partial curve] | 6.31 µM [rising, single point]
[N-]=[N+]=CC(=O)OC[C@H](N)C(=O)O | 2.51 µM [rising, partial curve, poor fit] | 
Fc1ccc(C(OCCN2CCCC2)c2ccc(Br)cc2)cc1 (stereo not drawn) | 35.5 µM [falling, single point] | 35.5 µM [falling, single point]
CC/C(=N\N1CCCCCC1)c1c(O)n(-c2ccccc2C)c(=O)[nH]c1=O | 14.1 µM [rising, partial curve, poor fit] | 12.6 µM [rising, partial curve]
CN(C)CCOc1ccc(/C(=C(/CCCl)c2ccccc2)c2ccccc2)cc1 | 31.6 µM [rising, single point] | 20 µM [rising, single point]
O=C1CN=C(c2ccc(Br)cc2)c2c(sc3c2CCCC3)N1CCN1CCCCC1 | 1.41 µM [rising, partial curve, poor fit] | 
CC(=O)N1CN2CN(C1)CN(C(C)=O)C2 | 17.8 µM [falling, single point] | 

Structure (SMILES) | AC50 [1] | AC50 [2]
C=CCn1c(O)c(C(C)=Nc2ccc(N(C)C)cc2)c(=O)[nH]c1=O |  | 17.8 µM [rising, single point]
CC(C(=O)c1c[nH]c2ccccc12)N1CCc2ccccc2C1 (stereo not drawn) |  | 31.6 µM [rising, single point]
CCOc1ccc(N2C(=O)NC(=O)/C(=C\c3ccc(N4CCCCC4)o3)C2=O)cc1 |  | 4.47 µM [falling, full curve, poor fit]
NC(=O)c1cn(C2OC(CO)C(O)C2O)c2ncnc(N)c12 (stereo not drawn) | 0.891 µM [falling, full curve, poor fit] | 11.2 µM [rising, partial curve]
COc1cc(CC2(CCc3ccncc3)C(=O)N(C)C(=O)N(C)C2=O)cc(OC)c1OC | 22.4 µM [falling, single point] | 22.4 µM [falling, partial curve, poor fit]
C[C@@H]1O[C@@H](O[C@H]2C[C@@H](O)[C@]3(CO)[C@H]4[C@H](O)C[C@]5(C)[C@@H](C6=CC(=O)OC6)CC[C@]5(O)[C@@H]4CC[C@]3(O)C2)[C@H](O)[C@H](O)[C@H]1O | 0.891 µM [rising, partial curve] | 0.794 µM [rising, full curve]
COc1ccc(CNC(=O)Cn2c(SCC(=O)Nc3ccc(C)c(C)c3)nc3ccccc32)cc1 | 35.5 µM [falling, single point] | 35.5 µM [falling, single point]
O=C(C[n+]1ccn(CCCNP2(=O)C=C(c3ccccc3)OC(c3ccccc3)=C2)c1)c1ccccc1 |  | 0.126 µM [falling, partial curve, poor fit]
Cc1c(N=Nc2c(O)n(Cc3ccccc3)c(=O)[nH]c2=O)c(=O)n(-c2ccccc2)n1C | 11.2 µM [rising, single point] | 20 µM [rising, single point]
CCOc1ccc(N(CC)S(=O)(=O)c2ccc3c(c2)oc(=O)n3C)cc1 |  | 35.5 µM [rising, single point]
COc1ccc2c3c([nH]c2c1)C(C)=NCC3 | 2.82 µM [rising, partial curve] | 7.08 µM [rising, partial curve]
CCN(CC)c1ccc(/C=C/[N+](=O)[O-])cc1 |  | 35.5 µM [rising, single point]
CN(Cc1c[nH]c2ccccc12)C1CCCCC1 | 31.6 µM [rising, single point] | 31.6 µM [rising, single point]
CCCN1CCC[C@@H]2Cc3[nH]ncc3C[C@H]21 | 11.2 µM [falling, partial curve, poor fit] | 5.01 µM [falling, partial curve, poor fit]
C[C@@H](N)Cc1cnc[nH]1 |  | 6.31 µM [falling, single point]
Cc1ccc(C2=NN(CCC(=O)N3CCC4(CC3)OCCO4)C(=O)CC2)cc1 |  | 0.708 µM [falling, full curve]
CCc1ccc(OCC(=O)N2CCN(CCc3ccncc3)CC2)cc1 | 0.2 µM [falling, full curve, poor fit] | 

A different layout for 2 compounds above.
Structure (SMILES)	AC50 [1]	AC50 [2]
COc1ccc2c3c([nH]c2c1)C(C)=NCC3	2.82 µM [rising, partial curve]	7.08 µM [rising, partial curve]
CCN(CC)c1ccc(/C=C/[N+](=O)[O-])cc1		35.5 µM [rising, single point]
